{
  "sequences": {"note": "Sequences of proteins named here, by UniProt entry; tags and fusion partners are left off.", "UniProt Q8NER1, whole entry": "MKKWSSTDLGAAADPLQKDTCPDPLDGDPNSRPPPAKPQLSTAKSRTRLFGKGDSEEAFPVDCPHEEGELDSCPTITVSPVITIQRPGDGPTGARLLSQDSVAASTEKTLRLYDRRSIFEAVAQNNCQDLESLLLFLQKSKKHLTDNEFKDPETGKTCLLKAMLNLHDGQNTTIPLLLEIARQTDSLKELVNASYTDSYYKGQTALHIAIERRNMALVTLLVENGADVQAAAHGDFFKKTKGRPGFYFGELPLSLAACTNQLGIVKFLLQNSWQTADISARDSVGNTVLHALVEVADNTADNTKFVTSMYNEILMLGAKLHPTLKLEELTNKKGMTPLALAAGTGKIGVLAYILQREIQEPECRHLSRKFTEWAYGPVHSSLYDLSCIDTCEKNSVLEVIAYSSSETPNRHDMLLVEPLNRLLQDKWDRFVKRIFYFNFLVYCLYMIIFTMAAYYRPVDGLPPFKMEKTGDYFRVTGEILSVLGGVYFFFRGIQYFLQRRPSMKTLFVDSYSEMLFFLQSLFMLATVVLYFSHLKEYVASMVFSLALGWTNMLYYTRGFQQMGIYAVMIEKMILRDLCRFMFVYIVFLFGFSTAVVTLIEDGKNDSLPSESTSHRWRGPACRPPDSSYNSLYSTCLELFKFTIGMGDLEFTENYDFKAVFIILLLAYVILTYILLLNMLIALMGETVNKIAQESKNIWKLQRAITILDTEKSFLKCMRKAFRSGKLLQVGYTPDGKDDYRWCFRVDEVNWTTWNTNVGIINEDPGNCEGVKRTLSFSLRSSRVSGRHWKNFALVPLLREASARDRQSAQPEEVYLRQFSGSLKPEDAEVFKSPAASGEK"},
  "source": "patent US20070105865A1",
  "about": "“Substituted bicyclic quinazolin-4-ylamine derivatives” (Neurogen Corporation, priority 2003, published 2007)",
  "origin": "cited, not measured here",
  "target": "VR (Homo sapiens, UniProt Q8NER1)",
  "conditions": "typically; no more than moderate affinity; cited from earlier work",
  "note": "Some of these results come from one statement about several compounds together. At least one compound was matched to its structure with a doubt left.",
  "data": [
    {"smiles": "Cl.Cl.Cl.Cl.Cl.Cl.N.N.N.N.N.N.N.N.N.N.N.N.N.N.[O-2].[O-2].[Ru+3].[Ru+3].[Ru+4]", "note": "[ruthenium red]", "values": [
      {"measurement": "Ki", "value": "≥ 140", "unit": "µM"}
    ]}
  ]
}
